In US20250235545A1, “POLYPEPTIDE CONJUGATE AND USE THEREOF” (SHANGHAI CHIXI BIOMEDICAL TECHNOLOGY CO., LTD, priority 2024, published 2025):

Tested on: Legumain or cathepsin B
Assay: Enzyme cleaving activation experiment, LC-MS (Examples 38, 39)
Format: biochemical
Settings: pH 5.0, 37° C., 2 h

| Compound | Enzymatically cleaved structure (Example 38) | Enzymatically cleaved structure (Example 39) |
| --- | --- | --- |
| CC[C@@]1(O)C(=O)OCC2=C1C=C1c3nc4ccccc4c(CCN(C(=O)OCc4ccc(NC(=O)[C@H](CC(N)=O)NC(=O)[C@H](C)NC(=O)[C@H](C)NC(=O)CCOCCOCCOCCOCCOCCOCCNC(=O)CCN5C(=O)C=CC5=O)cc4)C(C)C)c3CN1C2 [MI-6PEG-AAN-PAB-Belotecan] | Belotecan | – |
| CC[C@@]1(O)C(=O)OCc2c1cc1n(c2=O)Cc2c-1nc1ccccc1c2CCN(C(=O)CNC(=O)[C@H](CC(N)=O)NC(=O)[C@H](C)NC(=O)[C@H](C)NC(=O)CCOCCOCCOCCOCCOCCOCCNC(=O)CCN1C(=O)C=CC1=O)C(C)C [MI-6PEG-AANG-Belotecan] ({Propanoyl(3-maleimido)-PEG6}-AANG-Belotecan) | G-Belotecan | – |
| CC[C@@]1(O)C(=O)OCc2c1cc1n(c2=O)Cc2c-1nc1ccccc1c2CCN(C(=O)CNC(=O)[C@H](Cc1ccccc1)NC(=O)CNC(=O)CNC(=O)CCOCCOCCOCCOCCOCCOCCNC(=O)CCN1C(=O)C=CC1=O)C(C)C [MI-6PEG-GGFG-Belotecan] ({Propanoyl(3-maleimido)-PEG6}-GGFG-Belotecan) | Belotecan | – |
| CC[C@@]1(O)C(=O)OCc2c1cc1n(c2=O)Cc2c-1nc1ccccc1c2CCN(C(=O)[C@H](CC(C)C)NC(=O)[C@H](Cc1ccccc1)NC(=O)CNC(=O)CNC(=O)CCOCCOCCOCCOCCOCCOCCNC(=O)CCN1C(=O)C=CC1=O)C(C)C [MI-6PEG-GGFL-Belotecan] ({Propanoyl(3-maleimido)-PEG6}-GGFL-Belotecan) | – | Belotecan |

Where a SMILES comes first, the peptide text is derived from it. The star is where a group is joined. Belotecan = CC[C@@]1(O)C(=O)OCc2c1cc1n(c2=O)Cc2c-1nc1ccccc1c2CCN(C(C)C)*; Propanoyl(3-maleimido) = O=C1C=CC(=O)N1CCC(=O)*; PEG6 = NCCOCCOCCOCCOCCOCCOCCC(=O)O
